The values that follow come from PMC10438374.

The chains behind the UniProt entries cited, without tags or fusion partners. Where a name states a change or a piece, a line headed by the entry shows the natural chain unless it says otherwise.
UniProt P40692: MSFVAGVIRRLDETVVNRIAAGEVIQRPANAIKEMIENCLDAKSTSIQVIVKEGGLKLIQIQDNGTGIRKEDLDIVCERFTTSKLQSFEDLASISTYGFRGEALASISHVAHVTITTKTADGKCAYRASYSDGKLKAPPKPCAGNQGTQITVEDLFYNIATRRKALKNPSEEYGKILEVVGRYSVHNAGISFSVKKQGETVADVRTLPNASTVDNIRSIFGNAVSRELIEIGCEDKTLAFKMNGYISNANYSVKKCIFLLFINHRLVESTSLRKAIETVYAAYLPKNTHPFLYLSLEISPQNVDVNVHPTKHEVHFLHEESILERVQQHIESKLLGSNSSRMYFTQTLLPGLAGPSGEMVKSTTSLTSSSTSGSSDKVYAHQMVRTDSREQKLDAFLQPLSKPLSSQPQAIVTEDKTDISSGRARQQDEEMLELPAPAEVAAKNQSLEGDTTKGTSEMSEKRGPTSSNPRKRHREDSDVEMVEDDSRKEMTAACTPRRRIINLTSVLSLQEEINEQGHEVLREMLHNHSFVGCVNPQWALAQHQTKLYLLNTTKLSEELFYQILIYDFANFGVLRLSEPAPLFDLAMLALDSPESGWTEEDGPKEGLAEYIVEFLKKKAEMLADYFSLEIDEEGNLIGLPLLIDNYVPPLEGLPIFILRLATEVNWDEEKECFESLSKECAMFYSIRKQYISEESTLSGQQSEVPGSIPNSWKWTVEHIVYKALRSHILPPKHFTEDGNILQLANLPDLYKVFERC
UniProt P54278: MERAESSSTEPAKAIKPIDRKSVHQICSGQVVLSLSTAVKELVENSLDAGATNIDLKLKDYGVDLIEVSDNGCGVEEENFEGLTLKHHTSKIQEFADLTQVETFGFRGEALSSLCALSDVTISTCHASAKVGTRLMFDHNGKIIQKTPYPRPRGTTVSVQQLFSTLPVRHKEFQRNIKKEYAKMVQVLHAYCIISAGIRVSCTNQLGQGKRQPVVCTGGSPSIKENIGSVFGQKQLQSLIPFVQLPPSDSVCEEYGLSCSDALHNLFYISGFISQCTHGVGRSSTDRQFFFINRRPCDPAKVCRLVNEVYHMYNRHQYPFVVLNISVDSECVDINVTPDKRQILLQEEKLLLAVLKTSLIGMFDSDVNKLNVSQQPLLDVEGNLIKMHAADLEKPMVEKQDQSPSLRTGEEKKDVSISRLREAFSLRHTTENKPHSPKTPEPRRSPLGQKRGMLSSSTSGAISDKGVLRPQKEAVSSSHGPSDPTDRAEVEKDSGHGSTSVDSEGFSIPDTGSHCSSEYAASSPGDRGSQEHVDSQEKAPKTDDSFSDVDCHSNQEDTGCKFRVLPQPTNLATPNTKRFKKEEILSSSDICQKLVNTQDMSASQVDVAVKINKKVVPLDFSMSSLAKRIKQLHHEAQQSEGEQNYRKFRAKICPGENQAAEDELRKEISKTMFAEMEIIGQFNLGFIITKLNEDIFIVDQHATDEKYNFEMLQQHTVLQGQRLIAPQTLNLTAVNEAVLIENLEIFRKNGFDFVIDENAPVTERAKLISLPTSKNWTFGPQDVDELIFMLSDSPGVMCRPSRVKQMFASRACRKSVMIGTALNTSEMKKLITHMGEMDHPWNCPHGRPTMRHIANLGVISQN
UniProt P12004: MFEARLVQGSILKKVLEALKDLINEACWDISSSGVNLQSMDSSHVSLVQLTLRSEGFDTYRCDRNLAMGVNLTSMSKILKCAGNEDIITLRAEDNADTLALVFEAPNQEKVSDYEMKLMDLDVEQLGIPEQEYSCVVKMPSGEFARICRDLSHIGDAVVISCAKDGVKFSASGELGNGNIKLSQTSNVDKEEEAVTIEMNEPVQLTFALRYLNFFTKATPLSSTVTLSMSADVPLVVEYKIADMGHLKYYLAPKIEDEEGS

For the experiment, the target named is MutLα (MLH1/PMS2 heterodimer), recombinant human (human) (UniProt P40692+P54278). The experiment can be described thus: far-Western, overlay or dot blot; indicated proteins spotted onto nitrocellulose membrane and incubated with 0.36 µM PCNA overnight; PCNA detected immunochemically; both purified.

No constants are given. Whether binding was seen depends on the method and setting. Some binding calls cover weakened binding; strength is not graded here.

In the case of “PCNA (proliferating cell nuclear antigen) (from UniProt P12004 1-261)”, the binding result was “binds”.
